A short description of this assay: qHTS Assay for Lipid Storage Modulators in Drosophila S3 Cells.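 For cell number change: cells counted by Cell Tracker Red CMTPX staining in the red channel.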 As to conditions: BODIPY lipid droplet fluorescence, 18-24 h; for cell number change: measured here: cell count max response, cells fed with added oleic acid. Summed up:
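Laser-scanning cytometry quantifies lipid droplet accumulation (500–530 nm total intensity; droplet/cell object ratio) in oleic acid-fed (400 uM added) Drosophila S3 cells treated with a concentration series. 20 uM Triacsin C defined 100% inhibition.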
(In general: In qHTS, concentration-response curves come from the screen itself.)

The mark [1] stands for this setting: measured here: cell number channel AC50, cells fed with added oleic acid.
[2] abbreviates: measured here: lipid fluorescence (Fed channel) AC50, cells fed with added oleic acid.

Experimental findings from PubChem BioAssay AID2685 (National Center for Advancing Translational Sciences (NCATS), 2010) are described below.

Some of the results follow. These are further read-outs of the screen, such as a control signal, another cell line or another target. No call is given for them. The list favours compounds with an active or inconclusive main result. Words in brackets tell the shape of the fitted curve; partial curves, single points and poor fits give uncertain potencies.

With `Cc1ccc(/C=N/NC(=O)CSc2nc3ccccc3c(=O)n2-c2ccccc2C)s1`, the cell number change was -23.5%. Under setting [1], the AC50 is 3.26 µM [falling, full curve, poor fit]. Besides, the AC50 under setting [2] is 0.651 µM [rising, partial curve].

In the case of `O=C(N/N=C/c1cccnc1)c1cc(O)c(O)c(O)c1`, the cell number change was -2.01%. Also, the AC50 under setting [2] is 6.51 µM [rising, single point].

Regarding `N/C(=N\OC(=O)c1cccc([N+](=O)[O-])c1)c1ccccn1`, the cell number change was 33.6%. Also, the AC50 under setting [1] is 16.4 µM [rising, partial curve, poor fit].

Regarding `N#Cc1ccccc1OCC(=O)OCC(=O)NC1CCCCC1`, the cell number change is -0.44%. Besides, the AC50 under setting [2] is 0.651 µM [rising, full curve, poor fit].

Take `CCCCCc1ccc(-c2cn(Cc3ccc(C(=O)c4ccccc4)cc3)nn2)cc1`: the cell number change was determined as 16.2%. Moreover, the AC50 under setting [2] is 5.8 µM [falling, full curve].

As to `CCc1ccc(C(=O)Nc2cccnc2Oc2ccc(Cl)cc2)cc1`, the cell number change was determined as 19.3%. In addition, the concentration at half-maximal activity (AC50) under setting [2] is 7.31 µM [rising, partial curve, poor fit].

Take `CCN(c1ccccc1)S(=O)(=O)c1cc2c(cc1C)N(C)CCO2`: the cell number change was 11.5%. For the same compound, the AC50 under setting [2] was 20.6 µM [rising, partial curve, poor fit].

Regarding `CNC(=O)CN(c1ccc(C23CC4CC(CC(C4)C2)C3)cc1)S(C)(=O)=O`, the cell number change was -23.7%. In addition, the half-maximal activity concentration (AC50) under setting [1] is 0.259 µM [falling, full curve, poor fit]. Under setting [2], the AC50 is 0.291 µM [falling, full curve, poor fit].

`CCCCn1nc(C(=O)N2CCN(S(=O)(=O)c3ccccc3)CC2)c2ccccc2c1=O`: the cell number change is 76%. The AC50 under setting [1] was 6.51 µM [rising, full curve].

Regarding `NNC(=O)CN1CCN(c2ncc(C(F)(F)F)cc2Cl)CC1`, the cell number change amounted to 19%. Moreover, the AC50 under setting [1] is 1.64 µM [falling, partial curve]. Moreover, under setting [2], the concentration at half-maximal activity (AC50) was 2.06 µM [falling, partial curve].

On to `COc1cc2c(cc1OC)C(c1cccc([N+](=O)[O-])c1)N(C(=O)c1ccccc1C(=O)O)CC2` (stereo unspecified), for which the cell number change was 4.4%.

Consider `N=c1ccn(Cc2ccc([N+](=O)[O-])cc2)cc1`, for which the cell number change was -3.39%. Further, the AC50 under setting [2] was 3.26 µM [rising, single point].

Turning to `CCCCn1c(N)c(N(CC(C)C)C(=O)CCCc2nc3ccccc3c(=O)[nH]2)c(=O)[nH]c1=O`, the cell number change was -14%. Besides, the AC50 under setting [1] is 1.16 µM [falling, full curve, poor fit].

Consider `CCOC(=O)c1ccc(-c2n[nH]c(=O)c3ccccc23)cc1`, for which the cell number change is 19.3%. Also, the AC50 under setting [1] was 0.411 µM [rising, full curve]. Also, the AC50 under setting [2] was 0.82 µM [rising, full curve].

In the case of `CC(Sc1nnc(-c2ccccc2Br)o1)C(=O)N1CCOCC1` (stereo unspecified), the cell number change was 52%. Moreover, the AC50 under setting [1] was 29.1 µM [rising, single point].

`O=C(NCC1CCCCC1)c1cc([N+](=O)[O-])ccc1N1CCOCC1`: the cell number change is -34.7%. In addition, the AC50 under setting [2] was 29.1 µM [falling, partial curve, poor fit].

On to `Oc1ccc(-c2nc(-c3ccc(F)cc3)c(-c3ccncc3)[nH]2)cc1`, for which the cell number change came to 15.5%. Under setting [1], the AC50 was 0.164 µM [rising, full curve, poor fit]. For the same compound, the half-maximal activity concentration (AC50) under setting [2] was 0.184 µM [rising, full curve, poor fit].

Regarding `O=C(NCC(=O)N1CCN(c2ccccc2F)CC1)c1ccco1`, the cell number change worked out at 38.7%. Further, under setting [1], the AC50 was 29.1 µM [rising, single point]. Also, under setting [2], the AC50 is 20.6 µM [rising, partial curve].

In the case of `CCOC(=O)c1ccc(NC(=O)CN2C(=O)C(=O)N(CC(C)C)C2=O)cc1`, the cell number change came to 5.81%.

As for `CC1CCCC(C)N1CC(O)COc1ccc(Cl)cc1` (stereo unspecified), the cell number change was -18%. Moreover, under setting [1], the AC50 was 0.731 µM [falling, full curve, poor fit].

For the compound `COc1ccc(S(=O)(=O)Nc2ccc(S(=O)(=O)N3CCCCC3)cc2)cc1`, the cell number change is -30.5%. Further, under setting [1], the AC50 is 11.6 µM [falling, partial curve, poor fit].

For `COc1ccc(N2CCN(C(=O)CCNS(=O)(=O)c3ccc(C)cc3)CC2)cc1`, the cell number change is -14.4%. Besides, the AC50 under setting [2] is 1.64 µM [falling, partial curve].

As for `COc1ccc(NC(=O)Cn2c(=O)oc3ccccc32)cc1`, the cell number change came to 38.9%. Besides, under setting [2], the AC50 is 23.1 µM [rising, single point].

With `Cc1ccc(NC(=O)CN(C)C(=O)COC(=O)c2ccc(Cl)cc2O)cc1`, the cell number change is -44.1%. Under setting [1], the AC50 is 29.1 µM [falling, single point].

Turning to `Cc1ccc(S(=O)(=O)NCCC(=O)NC2CCCC2)cc1`, the cell number change was -33.7%. Under setting [1], the AC50 is 29.1 µM [falling, single point]. Under setting [2], the AC50 is 29.1 µM [falling, single point].

As to `O=C1CC(c2cc(F)ccc2F)c2cc3c(cc2N1)CCC3` (stereo unspecified), the cell number change is -40.7%. Moreover, the AC50 under setting [1] was 16.4 µM [falling, single point]. In addition, under setting [2], the half-maximal activity concentration (AC50) was 25.9 µM [falling, single point].

As to `CSCCC(NC(=O)COc1ccccc1)C(=O)N1CCN(c2ccccc2O)CC1` (stereo unspecified), the cell number change amounted to 38.1%. Besides, the AC50 under setting [1] was 0.184 µM [rising, full curve].

For the compound `CCCc1nnc(NC(=O)CCC(=O)N2CCN(Cc3ccccc3)CC2)s1`, the cell number change was -16.8%. The AC50 under setting [2] is 29.1 µM [rising, single point].

For the compound `Clc1ccc(Cn2nnc(-c3ccccc3)n2)cc1`, the cell number change is -44.3%. Further, the AC50 under setting [1] is 16.4 µM [falling, partial curve, poor fit]. Under setting [2], the AC50 was 16.4 µM [falling, partial curve].

Regarding `O=C(COC(=O)c1cc(Cl)ccc1[N+](=O)[O-])NCc1ccc(Cl)cc1Cl`, the cell number change was found to be 16.5%. Besides, under setting [2], the AC50 was 29.1 µM [falling, single point].

Regarding `CNc1ccccc1-c1nc2ccccc2n(C)c1=O`, the cell number change was determined as 5.64%. Further, the AC50 under setting [2] was 4.11 µM [rising, partial curve].

As for `O=S(=O)(Nc1cccc(-c2cn3c(n2)SCC3)c1)c1ccccc1F`, the cell number change amounted to 6.07%. Besides, the AC50 under setting [2] was 2.31 µM [rising, partial curve, poor fit].

For the compound `O=C1CC(N2CCN(Cc3ccccc3)CC2)C(=O)N1CCc1ccccc1` (stereo unspecified), the cell number change is 20.6%. Further, the AC50 under setting [2] was 0.731 µM [falling, full curve].

In the case of `Cc1ccc(S(=O)(=O)N(CC(O)CN2CCCC2)c2ccccc2)cc1` (stereo unspecified), the cell number change was -62.1%. In addition, under setting [1], the concentration at half-maximal activity (AC50) is 16.4 µM [falling, single point]. Under setting [2], the AC50 is 0.651 µM [falling, full curve, poor fit].

Take `COc1ccc(OC)c(S(=O)(=O)N2CCC(C(=O)NC3CCCC3)CC2)c1`: the cell number change was -5.26%.

With `CCOC(=O)CSc1nc2sc(C(=O)O)c(C)c2c(=O)[nH]1`, the cell number change is -101%. For the same compound, the AC50 under setting [1] was 5.17 µM [falling, full curve]. For the same compound, under setting [2], the AC50 was 29.1 µM [falling, single point].

In the case of `Cc1ccc(-n2nc3c(c2NC(=O)/C=C\c2ccc4c(c2)OCO4)CSC3)c(C)c1`, the cell number change came out at 11.5%. Moreover, the AC50 under setting [2] is 29.1 µM [rising, single point].

On to `COc1cccc(C(=O)NCCS(=O)(=O)NCc2ccco2)c1`, for which the cell number change turned out to be 26.7%. Also, the AC50 under setting [2] was 6.51 µM [falling, single point].

Regarding `Cc1nn(-c2ccccc2)c(C)c1NC(=O)COC(=O)c1ccc(Cl)c(N)c1`, under setting [2], the half-maximal activity concentration (AC50) was 6.51 µM [rising, single point].

Consider `COc1ccccc1N(CC(=O)NCc1ccccc1)C(=O)CCC(=O)Nc1nccs1`, for which the cell number change was found to be 7.56%. Also, the AC50 under setting [2] was 29.1 µM [falling, single point].

Turning to `CCCCC[n+]1cccc2c3ccccc3ccc21`, the cell number change is -59.4%. Further, under setting [1], the AC50 is 16.4 µM [falling, single point]. Also, the AC50 under setting [2] was 20.6 µM [falling, single point].

With `O=C(Cn1c(=O)sc2ccccc21)Nc1nc2c(s1)CCCC2`, the cell number change is -23.9%. Further, the half-maximal activity concentration (AC50) under setting [2] was 3.66 µM [rising, partial curve, poor fit].

Regarding `Cc1cccc(NC(=S)N(C)Cc2cn(C)c3ccccc23)c1`, the cell number change was determined as 35.3%. Further, the AC50 under setting [1] was 5.17 µM [rising, partial curve]. Moreover, the AC50 under setting [2] is 0.92 µM [rising, full curve, poor fit].

For `S=C(Nc1ccc(Br)cc1)N1CCCC1`, the cell number change amounted to 13%. Besides, the AC50 under setting [1] was 3.66 µM [falling, single point].

Take `O=C(Cc1cccs1)NCCSc1c(-c2ccc(Cl)cc2)[nH]c2ccccc12`: the cell number change is -14.2%. For the same compound, the AC50 under setting [2] was 0.116 µM [falling, full curve, poor fit].

For the compound `O=C(Nn1c(Cc2cccs2)nc2ccccc2c1=O)c1cccs1`, the cell number change was -15.9%. In addition, the AC50 under setting [1] was 0.00517 µM [falling, full curve, poor fit]. The half-maximal activity concentration (AC50) under setting [2] was 0.00461 µM [falling, full curve, poor fit].

Turning to `Cc1cc(C)c2oc(=O)cc(CN3CCN(Cc4ccc5c(c4)OCO5)CC3)c2c1`, the cell number change is -3.17%. For the same compound, under setting [2], the AC50 was 0.461 µM [rising, single point].

Take `CCOC(=O)CCCn1c(C)nc(=O)c(-c2ccccc2)c1C`: the cell number change was -35.1%. Moreover, under setting [1], the AC50 is 0.411 µM [falling, full curve, poor fit]. The AC50 under setting [2] was 0.82 µM [falling, full curve, poor fit].

For `O=C(/C=C/c1ccco1)Nc1ccc(S(=O)(=O)N2CCOCC2)cc1`, the cell number change was -7.16%.

Consider `OC(COc1ccc(Br)cc1)CN1CCOCC1` (stereo unspecified), for which the cell number change is -14.1%. Moreover, under setting [1], the AC50 was 6.51 µM [falling, single point].

For `Cc1ccc(NC(=O)CSc2nnc(Cc3cccn3C)n2-c2ccc(F)cc2)c(C)c1`, the cell number change is 1.04%.

For `CCn1c(NC(=O)Nc2cccc(C)c2C)cc2sccc21`, the cell number change is -1.45%. In addition, the AC50 under setting [2] was 0.651 µM [rising, full curve, poor fit].

In the case of `CCOC(=O)c1cc(C#N)c(N2CCOCC2)nc1-c1ccccc1`, the cell number change worked out at 11.8%.

On to `CCCNC(=O)C(Cc1ccc(F)cc1)NC(=O)c1ccccc1` (stereo unspecified), for which the cell number change was -11.2%. Further, under setting [1], the AC50 is 0.58 µM [rising, partial curve]. Moreover, the AC50 under setting [2] is 0.00517 µM [falling, full curve, poor fit].

As for `CN(C)/C=C/C(=O)C(F)(F)F`, the cell number change stood at 32.7%.

`CCNC(=O)Nc1nc2ccccc2s1`: the cell number change was -43.8%. Moreover, the AC50 under setting [1] was 9.2 µM [falling, partial curve]. Besides, under setting [2], the AC50 is 20.6 µM [falling, single point].

Usually AC50 stands for the concentration giving half of the maximal activity seen. A low value points to activity at low concentration.
